No constants are given. Whether binding was seen depends on the method and setting. For some assays here: In cells and extracts the contact can be indirect. Some binding calls cover weakened binding; strength is not graded here.
Experiments:
[1] = molecular target: GLP-1R-SmBiT (FLAG-tagged glucagon-like peptide-1 receptor with SmBiT at the C-terminus) (UniProt P43220); experiment: split reporter; NanoBiT complementation in live INS-1 832/3 GLP-1R KO or GIPR KO cells co-transfected with receptor-SmBiT and LgBiT-mini-Gs, -mini-Gq, -mini-Gi or -β-arrestin 2; 37 °C, 30 minutes with 100 nM GLP-1 or GIP; responses normalised to vehicle
[2] = molecular target: T1, endogenous GIPR of mouse islets (mouse (endogenous in islets)) (UniProt Q0P543); experiment: confocal microscopy of fluorescent ligand on cells; isolated intact mouse islets, 15 minutes; WT islets with 100 nM GLP-1-TMR; WT and Gipr-/- (KO) islets with 1 µM GIP-TMR; only the binder purified
T1 sequence: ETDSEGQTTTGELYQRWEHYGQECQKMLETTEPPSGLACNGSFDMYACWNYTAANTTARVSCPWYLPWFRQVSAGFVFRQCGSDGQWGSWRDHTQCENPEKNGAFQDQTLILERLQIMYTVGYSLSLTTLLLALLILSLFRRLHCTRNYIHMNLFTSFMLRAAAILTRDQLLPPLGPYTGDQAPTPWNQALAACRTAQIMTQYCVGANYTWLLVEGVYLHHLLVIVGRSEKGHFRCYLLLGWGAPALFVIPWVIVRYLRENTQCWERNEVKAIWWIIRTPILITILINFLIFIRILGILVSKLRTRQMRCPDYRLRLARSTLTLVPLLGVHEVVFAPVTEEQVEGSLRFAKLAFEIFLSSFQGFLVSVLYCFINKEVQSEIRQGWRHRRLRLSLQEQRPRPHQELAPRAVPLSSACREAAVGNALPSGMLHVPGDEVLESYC

Protein sequences, listed by entry. Tags and fused reporters are not part of them. Residues count along the entry.
UniProt P43220, residues 24-463: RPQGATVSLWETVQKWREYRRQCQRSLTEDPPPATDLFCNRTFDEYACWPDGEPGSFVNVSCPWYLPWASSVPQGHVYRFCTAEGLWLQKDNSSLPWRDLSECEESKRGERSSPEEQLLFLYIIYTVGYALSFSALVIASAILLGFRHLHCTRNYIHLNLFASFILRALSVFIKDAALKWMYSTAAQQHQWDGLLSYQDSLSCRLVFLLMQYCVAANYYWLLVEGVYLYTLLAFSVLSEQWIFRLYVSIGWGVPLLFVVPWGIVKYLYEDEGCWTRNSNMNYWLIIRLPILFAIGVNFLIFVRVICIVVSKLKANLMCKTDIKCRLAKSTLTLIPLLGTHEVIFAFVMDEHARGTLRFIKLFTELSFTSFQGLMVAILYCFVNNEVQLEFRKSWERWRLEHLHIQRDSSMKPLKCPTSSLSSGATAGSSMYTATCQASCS
UniProt P32121: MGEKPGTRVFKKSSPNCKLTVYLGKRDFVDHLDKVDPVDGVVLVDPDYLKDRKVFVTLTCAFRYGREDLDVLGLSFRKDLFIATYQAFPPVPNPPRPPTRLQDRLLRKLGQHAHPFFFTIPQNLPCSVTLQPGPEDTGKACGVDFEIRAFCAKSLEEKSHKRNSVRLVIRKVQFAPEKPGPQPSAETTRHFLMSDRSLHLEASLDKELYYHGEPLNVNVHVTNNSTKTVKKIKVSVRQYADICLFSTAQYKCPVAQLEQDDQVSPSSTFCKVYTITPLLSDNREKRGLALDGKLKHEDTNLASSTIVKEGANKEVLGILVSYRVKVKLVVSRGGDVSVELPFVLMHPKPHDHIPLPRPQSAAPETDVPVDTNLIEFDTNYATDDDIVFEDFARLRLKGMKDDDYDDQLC
UniProt P09681, residues 52-93: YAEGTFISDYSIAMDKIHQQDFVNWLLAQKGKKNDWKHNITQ

Substance	binding [1]	binding [2]
LgBiT-β-arrestin 2 (from UniProt P32121 1-409)	binds	–
GIP-TMR (tetramethylrhodamine conjugate of GIP(1-42)) (from UniProt P09681 52-93) (peptide)	–	binds

Source: PMC10016038, “Enhanced Endosomal Signaling and Desensitization of GLP-1R vs GIPR in Pancreatic Beta Cells” (Endocrinology, 2023)
